Assay results published in the supplement of paper PMC12889115.
This is one part of the list. Values are raw readings; no control value is given beside them.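 Primary screen: polymyxin B was added at a level permeabilizing Salmonella outer membranes while sparing inner membranes. DMSO wells, both with and without polymyxin B, established maximum growth. Plate-to-plate variation meant each plate was ranked on its own, and the lowest-OD600 compounds were selected as hits.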

Tested on: Salmonella enterica serovar Typhimurium SL1344
Assay: bacterial growth OD600 after 18 h with compound and polymyxin B; higher = more bacterial growth (less inhibition)
Conditions: 50 µM, Mueller-Hinton broth

## O=C(Nc1ccc(Oc2ccccc2F)cc1)C1CCCCN1C(=O)Cn1cncn1 (centres undefined)
Polymyxin B 0.75 µg/mL
  bacterial growth OD600: 0.789

## O=C(Nc1cccc(-c2cccc(F)c2)c1)C1CCN(CC2CC2)CC1
Polymyxin B 1 µg/mL
  bacterial growth OD600: 0.676

## Cc1ccccc1CCC1CCCN(C(=O)CCc2c(C)noc2C)C1 (centres undefined)
Polymyxin B 1 µg/mL
  bacterial growth OD600: 0.015

## COc1ccc2ccc(OCc3nc(C(=O)N4CCCCCC4)co3)cc2c1
Polymyxin B 1 µg/mL
  bacterial growth OD600: 0.673

## OC1CCN([C@@H]2CCN(CC3CCCC3)C[C@H]2O)CC1
Polymyxin B 1 µg/mL
  bacterial growth OD600: 1.07

## OCCC1CCN(c2ccc(-c3nc(Cc4ccccc4)no3)cn2)CC1
Polymyxin B 1 µg/mL
  bacterial growth OD600: 0.571

## CCn1ccnc1CN(CCOC)CC1CCCN(C2Cc3ccccc3C2)C1 (centres undefined)
Polymyxin B 1 µg/mL
  bacterial growth OD600: 0.804

## Cc1ncc2c(c1CNC(=O)CSc1ncccn1)CCN(C(=O)c1ccc(CC(C)C)cc1)C2
Polymyxin B 0.75 µg/mL
  bacterial growth OD600: 0.738

## CCOCc1cc(CN2CCC(CCC(=O)NCc3cccnc3)CC2)ccc1OC
Polymyxin B 1 µg/mL
  bacterial growth OD600: 1.26

## O=C(Cc1ccc(N2CCNC2=O)cc1)NCCN1Cc2ccccc2OC(c2ccsc2)C1 (centres undefined)
Polymyxin B 0.75 µg/mL
  bacterial growth OD600: 0.892

## COCc1ccc(C(=O)NCc2c(C)ncc3c2CCN(C(=O)c2ccc4cc[nH]c4c2)C3)o1
Polymyxin B 0.75 µg/mL
  bacterial growth OD600: 0.824

## CCCc1ncc(CN(C)C2CCCN(CCc3ccccc3)C2)cn1 (centres undefined)
Polymyxin B 1 µg/mL
  bacterial growth OD600: 1.1

## O=C(CC1C(=O)NCCN1Cc1c(F)cccc1Cl)NCCc1ccccn1 (centres undefined)
Polymyxin B 1 µg/mL
  bacterial growth OD600: 0.795

## CC(=O)c1cc(CN(C)CC2CCN(Cc3ccc(C)o3)CC2)cs1
Polymyxin B 1 µg/mL
  bacterial growth OD600: 0.915

## CCn1c(-c2cccc(OC)c2)nc2cc(NC(C)=O)cc(C(=O)NCCCOc3cccnc3)c21
Polymyxin B 0.75 µg/mL
  bacterial growth OD600: 0.839

## Cc1nc(N2CCC(C(=O)N(C)Cc3ccc(C(F)(F)F)cc3)CC2)nc2ccccc12
Polymyxin B 0.75 µg/mL
  bacterial growth OD600: 0.009

## O=C(CC1CC1)NC1CCCc2nc(-c3ccccc3)ncc21 (centres undefined)
Polymyxin B 1 µg/mL
  bacterial growth OD600: 0.852

## CC(C)CCC(=O)N1CCC(C2(c3cccnc3)NC(=O)N(CCc3cccs3)C2=O)CC1 (centres undefined)
Polymyxin B 0.75 µg/mL
  bacterial growth OD600: 0.853

## Cc1nc(N(C)C2CCCCC2)ncc1C(C)NS(=O)(=O)N(C)C (centres undefined)
Polymyxin B 1 µg/mL
  bacterial growth OD600: 0.928

## CCc1nccn1CCC(=O)N(C)CC1CCCN(CCc2ccc(F)cc2)C1 (centres undefined)
Polymyxin B 0.75 µg/mL
  bacterial growth OD600: 0.817

## C#CCN(Cc1ccco1)C(=O)CC1(c2ccccc2F)CC(=O)N(CCOC)C1=O (centres undefined)
Polymyxin B 0.75 µg/mL
  bacterial growth OD600: 0.861

## COCCN(C(=O)c1cc(OC)ccc1OC1CCN(C2CCCC2)CC1)C(C)C
Polymyxin B 1 µg/mL
  bacterial growth OD600: 0.996

## C#Cc1ccc(CN2CCC(N3CCC(C(=O)NCC4CCCO4)CC3)CC2)cc1 (centres undefined)
Polymyxin B 1 µg/mL
  bacterial growth OD600: 0.789

## CC(C)N1CCC(N2CCCC(C(=O)NCc3ccc(F)c(F)c3)C2)CC1 (centres undefined)
Polymyxin B 0.75 µg/mL
  bacterial growth OD600: 0.853

## CC(C)CCN(C)C(=O)C1CCCN(C2CCN(C(=O)C3CC3)CC2)C1 (centres undefined)
Polymyxin B 0.75 µg/mL
  bacterial growth OD600: 1.01

## CCN(Cc1ccncc1)C(=O)CC1(c2ccccc2OC)CC(=O)N(CCCOC)C1=O (centres undefined)
Polymyxin B 0.75 µg/mL
  bacterial growth OD600: 1

## CN(CCC1CCOCC1)C(=O)c1ccc(OC2CCN(C(=O)C3CC3)CC2)cc1
Polymyxin B 1 µg/mL
  bacterial growth OD600: 0.863

## COCc1ccc(C(=O)NCc2c(C)ncc3c2CCN(C(=O)c2cc(CC(C)C)on2)C3)o1
Polymyxin B 0.75 µg/mL
  bacterial growth OD600: 0.778

## Cc1c[nH]c(C(=O)N2CCC3(CCCN(Cc4ccccc4F)C3=O)C2)n1 (centres undefined)
Polymyxin B 1 µg/mL
  bacterial growth OD600: 0.946
